From publication PMC7862700
This is a selection; strong and weak results do not stand in their true shares. For some of these results: At the low end of the ranking the order means little. The list shows a part of the results. For some of these results: The exact form of the protein is not confirmed.

By UniProt entry, the sequences of proteins in these tests, tags left out. Where a name states a change or a piece, a line headed by the entry shows the natural chain unless it says otherwise.
UniProt P32519: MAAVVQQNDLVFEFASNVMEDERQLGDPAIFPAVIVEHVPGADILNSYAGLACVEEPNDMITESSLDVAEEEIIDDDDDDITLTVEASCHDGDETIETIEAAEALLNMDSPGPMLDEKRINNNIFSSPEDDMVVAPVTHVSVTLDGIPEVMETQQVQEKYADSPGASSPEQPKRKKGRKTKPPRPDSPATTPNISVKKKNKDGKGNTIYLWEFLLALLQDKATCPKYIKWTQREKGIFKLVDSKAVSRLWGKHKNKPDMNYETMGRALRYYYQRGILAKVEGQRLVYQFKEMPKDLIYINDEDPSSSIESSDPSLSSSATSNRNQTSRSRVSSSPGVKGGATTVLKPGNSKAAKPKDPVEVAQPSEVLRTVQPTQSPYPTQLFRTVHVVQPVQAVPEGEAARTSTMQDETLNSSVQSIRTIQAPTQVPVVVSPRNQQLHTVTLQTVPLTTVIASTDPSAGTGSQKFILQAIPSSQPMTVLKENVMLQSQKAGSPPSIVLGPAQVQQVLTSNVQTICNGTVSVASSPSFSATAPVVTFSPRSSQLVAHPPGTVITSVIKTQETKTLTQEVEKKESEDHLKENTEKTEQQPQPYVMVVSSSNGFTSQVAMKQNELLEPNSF
UniProt P50549: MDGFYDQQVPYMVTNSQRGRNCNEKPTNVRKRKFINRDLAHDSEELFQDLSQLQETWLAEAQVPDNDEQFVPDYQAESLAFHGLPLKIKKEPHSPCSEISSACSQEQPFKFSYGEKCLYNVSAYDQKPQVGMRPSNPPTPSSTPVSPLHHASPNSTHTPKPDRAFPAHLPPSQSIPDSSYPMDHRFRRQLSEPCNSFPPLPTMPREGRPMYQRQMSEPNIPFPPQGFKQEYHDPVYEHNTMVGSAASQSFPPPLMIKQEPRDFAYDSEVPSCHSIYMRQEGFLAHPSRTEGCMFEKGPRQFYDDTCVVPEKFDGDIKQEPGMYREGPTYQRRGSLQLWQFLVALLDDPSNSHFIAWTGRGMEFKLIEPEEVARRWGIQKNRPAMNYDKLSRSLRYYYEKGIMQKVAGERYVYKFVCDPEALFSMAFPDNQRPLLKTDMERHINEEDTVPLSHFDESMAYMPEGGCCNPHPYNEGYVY

Assays:
Assay in all cases: DAPPL (digital affinity profiling via proximity ligation, sequencing)
Conditions in all cases: 10 mM Tris-HCl pH 7.5, 50 mM NaCl, 1 mM DTT, 4% glycerol, room temperature, 30 min; GST-TFs on glutathione beads, 16-mer random dsDNA library, 0.1% …; high values mean tight binding; double strand, one strand shown; scale: fold enrichment (6-mer frequency, TF over GST control)
ERG = target: T1, ERG (UniProt P11308)
T1 sequence: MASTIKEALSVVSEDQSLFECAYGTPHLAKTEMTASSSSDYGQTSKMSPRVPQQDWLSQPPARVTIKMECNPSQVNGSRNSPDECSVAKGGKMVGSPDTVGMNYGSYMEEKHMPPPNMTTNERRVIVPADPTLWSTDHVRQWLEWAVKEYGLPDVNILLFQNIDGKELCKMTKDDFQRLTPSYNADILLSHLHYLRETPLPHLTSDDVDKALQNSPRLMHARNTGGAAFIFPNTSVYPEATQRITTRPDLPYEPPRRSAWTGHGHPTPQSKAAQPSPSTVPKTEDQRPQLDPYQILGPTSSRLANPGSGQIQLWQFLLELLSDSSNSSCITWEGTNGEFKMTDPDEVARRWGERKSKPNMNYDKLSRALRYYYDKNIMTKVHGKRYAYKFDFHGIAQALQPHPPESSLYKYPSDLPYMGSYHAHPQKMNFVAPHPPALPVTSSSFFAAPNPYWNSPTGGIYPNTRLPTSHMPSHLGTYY

ETV4 = target: T2, ETV4 (UniProt P43268)
T2 sequence: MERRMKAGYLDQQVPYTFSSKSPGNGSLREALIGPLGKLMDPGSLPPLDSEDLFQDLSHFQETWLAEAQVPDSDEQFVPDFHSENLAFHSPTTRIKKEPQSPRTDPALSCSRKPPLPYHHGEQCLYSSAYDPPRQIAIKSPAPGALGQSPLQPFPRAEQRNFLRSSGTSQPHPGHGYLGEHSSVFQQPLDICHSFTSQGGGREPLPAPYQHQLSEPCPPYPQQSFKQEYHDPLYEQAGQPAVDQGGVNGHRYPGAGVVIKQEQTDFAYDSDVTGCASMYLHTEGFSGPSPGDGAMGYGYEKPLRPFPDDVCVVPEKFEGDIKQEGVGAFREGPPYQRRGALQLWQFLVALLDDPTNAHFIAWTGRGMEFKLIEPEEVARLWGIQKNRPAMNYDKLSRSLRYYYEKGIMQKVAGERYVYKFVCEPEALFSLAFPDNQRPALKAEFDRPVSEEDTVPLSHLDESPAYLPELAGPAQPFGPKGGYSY

ERF = target: T3, ERF (UniProt P50548)
T3 sequence: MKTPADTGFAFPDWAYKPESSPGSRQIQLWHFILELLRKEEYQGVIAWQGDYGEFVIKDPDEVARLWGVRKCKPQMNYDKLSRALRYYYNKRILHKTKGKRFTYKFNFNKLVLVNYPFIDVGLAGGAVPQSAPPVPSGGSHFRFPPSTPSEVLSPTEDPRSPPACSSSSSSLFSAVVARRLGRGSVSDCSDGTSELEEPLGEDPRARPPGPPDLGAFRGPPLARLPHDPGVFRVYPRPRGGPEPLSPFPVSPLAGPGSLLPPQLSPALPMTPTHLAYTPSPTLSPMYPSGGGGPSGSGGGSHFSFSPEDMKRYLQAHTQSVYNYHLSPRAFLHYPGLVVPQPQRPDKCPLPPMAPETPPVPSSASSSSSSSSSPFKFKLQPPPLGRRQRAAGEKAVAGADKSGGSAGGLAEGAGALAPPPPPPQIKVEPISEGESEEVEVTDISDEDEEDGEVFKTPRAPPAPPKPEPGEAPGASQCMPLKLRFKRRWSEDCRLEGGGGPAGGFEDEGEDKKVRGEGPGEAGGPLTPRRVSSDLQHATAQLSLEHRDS

ELF1 = ELF1 (UniProt P32519)
ETV1 = ETV1 (UniProt P50549)

Row | Sequence | binding signal (ERG) | binding signal (ETV4) | binding signal (ERF) | binding signal (ELF1) | binding signal (ETV1)
1 | ATTTGC | 1.32 | 1.31 | 1.32 |  | 
2 | GTACCA | 0.964 | 0.976 | 1.04 |  | 
3 | TAGCGT | 0.986 | 0.934 | 0.983 |  | 
4 | GTTTTG | 1.25 | 1.23 | 1.25 |  | 
5 | GTAACC | 0.984 | 1.1 | 1.11 |  | 
6 | TCCCGA | 1.27 | 1.26 | 1.34 |  | 
7 | AGTGGT | 1.06 | 1.06 | 1.14 |  | 
8 | GGCTAA | 0.952 | 0.947 | 0.979 |  | 
9 | CGCGTT | 0.994 | 0.991 | 0.949 |  | 
10 | ACTGTC | 0.983 | 1.02 | 0.892 |  | 
11 | CGCACT | 1.21 | 1.26 | 1.21 |  | 
12 | CACGCA | 0.946 | 1.09 | 0.993 |  | 
13 | AATACT | 1.22 | 1.2 | 1.19 |  | 
14 | GATACC | 0.956 | 1.01 | 0.868 |  | 
15 | TGCGGA | 1.37 | 1.15 | 1.14 |  | 
16 | ACCGGC | 1.13 | 1.07 | 0.992 |  | 
17 | CGGTAT | 1.13 | 1.05 | 1.02 |  | 
18 | GTAATG | 1.05 | 1.04 | 1.12 |  | 
19 | CGCACG | 0.925 | 0.965 | 1.06 |  | 
20 | TAATCA | 1.07 | 1.19 | 1.09 |  | 
21 | TCTCCA | 1.37 | 1.5 | 1.42 |  | 
22 | TCATAA | 0.953 | 0.96 | 0.977 |  | 

Row | Sequence | binding signal (ERG) | binding signal (ETV4) | binding signal (ERF) | binding signal (ELF1) | binding signal (ETV1)
23 | CACTGA | 0.992 | 1.1 | 0.937 |  | 
24 | CCCGAA | 1.18 | 1.3 | 1.48 | 1.39 | 
25 | GATGTA | 1.27 | 1.47 |  | 1.26 | 
26 | TGAACG | 0.878 | 0.951 | 0.931 |  | 
27 | TGGTGC | 1.16 | 0.986 | 1.11 | 0.989 | 
28 | TCAGCC | 0.97 | 1.11 | 0.923 | 0.988 | 
29 | TCCTGT | 1.94 | 1.66 | 1.6 |  | 
30 | ATGATG | 1.18 | 1.4 |  | 1.36 | 
31 | AGCTGA | 0.957 | 0.92 | 0.967 | 1.1 | 
32 | CCGCAA | 1.28 | 1.33 |  | 1.31 | 
33 | CTTCAC | 1.45 | 1.41 |  | 1.45 | 
34 | ACGCGG | 0.987 | 0.993 | 0.873 | 1.03 | 
35 | TAAGCC | 1.13 | 1.08 | 1.15 | 1.16 | 
36 | GAAGCC | 1.08 | 1.05 | 0.933 | 0.947 | 
37 | CCCCTA | 1.05 | 1.12 | 1.04 | 1.18 | 
38 | CGATGC | 1.08 | 1.06 |  | 1.02 | 
39 | TCAGCA | 0.998 | 1.03 | 0.97 |  | 
40 | TCGTTG | 0.883 | 1 | 1.03 | 0.925 | 
41 | TATCTG | 1.25 | 1.16 | 1.2 |  | 
42 | AGCGGC | 0.946 | 0.875 | 0.921 | 0.967 | 
43 | CCTGCG | 1.27 | 1.4 | 1.22 | 1.38 | 
44 | GAGCTC | 0.808 | 0.898 | 0.931 | 0.946 | 

Row | Sequence | binding signal (ERG) | binding signal (ETV4) | binding signal (ERF) | binding signal (ELF1) | binding signal (ETV1)
45 | CTACGT | 1.19 | 1.16 |  | 1.13 | 
46 | TGGTCA | 1.06 | 0.951 | 0.986 | 0.983 | 
47 | CCAACG | 1.17 | 1.18 | 1.29 | 1.2 | 
48 | TACGGT | 1.02 | 1.01 | 0.971 |  | 
49 | TCCGCG | 1.41 | 1.21 | 1.22 | 1.2 | 
50 | CAATGT | 1.02 | 0.978 | 1.05 | 0.985 | 
51 | TCCATA | 1.25 | 1.25 | 1.37 |  | 
52 | TACAAA | 1.08 | 1.16 | 1.1 | 1.14 | 
53 | TCATCG | 0.998 | 1.07 |  | 1.01 | 
54 | TAGATA | 0.962 | 1.02 | 0.968 | 1.06 | 
55 | ACTATA | 1.31 | 1.39 | 1.29 |  | 
56 | GTTGCC | 0.931 | 0.883 | 0.874 | 0.894 | 
57 | CCTAGG | 1 | 0.952 | 0.908 | 1.07 | 
58 | TCATGA | 0.986 | 1.03 | 0.968 |  | 
59 | CACACA | 1.15 | 1.15 | 1.16 | 1.16 | 
60 | CAAGCT | 0.995 | 1.01 | 0.978 | 0.999 | 
61 | TTTCAT | 1.15 | 1.15 | 1.25 |  | 
62 | GTCCGC | 1.04 | 1.02 | 0.954 | 0.977 | 
63 | CTAGCC |  | 1.01 |  |  | 0.961
64 | TCCACG |  | 1.03 |  |  | 1.08
65 | TTCGCA |  | 1.36 |  |  | 1.32
66 | GAACTT |  | 1.57 |  |  | 1.68

Nos. 15 through 31 from above:
Row | Sequence | binding signal (ERG) | binding signal (ETV4) | binding signal (ERF) | binding signal (ELF1) | binding signal (ETV1)
15 | TGCGGA | 1.37 | 1.15 | 1.14 |  | 
16 | ACCGGC | 1.13 | 1.07 | 0.992 |  | 
17 | CGGTAT | 1.13 | 1.05 | 1.02 |  | 
18 | GTAATG | 1.05 | 1.04 | 1.12 |  | 
19 | CGCACG | 0.925 | 0.965 | 1.06 |  | 
20 | TAATCA | 1.07 | 1.19 | 1.09 |  | 
21 | TCTCCA | 1.37 | 1.5 | 1.42 |  | 
22 | TCATAA | 0.953 | 0.96 | 0.977 |  | 
23 | CACTGA | 0.992 | 1.1 | 0.937 |  | 
24 | CCCGAA | 1.18 | 1.3 | 1.48 | 1.39 | 
25 | GATGTA | 1.27 | 1.47 |  | 1.26 | 
26 | TGAACG | 0.878 | 0.951 | 0.931 |  | 
27 | TGGTGC | 1.16 | 0.986 | 1.11 | 0.989 | 
28 | TCAGCC | 0.97 | 1.11 | 0.923 | 0.988 | 
29 | TCCTGT | 1.94 | 1.66 | 1.6 |  | 
30 | ATGATG | 1.18 | 1.4 |  | 1.36 | 
31 | AGCTGA | 0.957 | 0.92 | 0.967 | 1.1 | 
